# Values quoted from earlier work, collected in US20090209619A1, “Depression of herg k+ channel function in mammallan cells and applications to the control of cancer cells division” (priority 2004, published 2009).
# At least one structure is not confirmed: it was looked up by name or label, or the drawing left a doubt.
# System: MCF-7 cells
# Settings: cited from earlier work
smiles,measurement,value
Nc1cc(N2CCCCC2)nc(N)[n+]1[O-] [Minoxidil],effect on growth/proliferation of MCF-7 human breast cancer cells,stimulate growth
